Each structure is given as a SMILES string. The list shows a part of the results. Repeats in this data set agree poorly, so a single value says little.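 Free-swimming zebrafish larvae were scored for O-bend response probability to dark flashes (naive: first five; training: remaining flashes of four 60-flash blocks; test: later 60-flash block) and for turning toward alternating leftward/rightward LED motion (OMR). Six treated larvae were compared with sixty 0.1% DMSO controls; |SSMD|≥2 defined a hit.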

Common to all, as to details: 10 µM; pre-incubation: 30-90 min
For test [1], the system named is Danio rerio larvae (5 dpf, TLF). The test is described as follows: OMR-Perf (SSMD vs DMSO vehicle); higher = higher than vehicle (e.g. higher dark-flash O-bend response probability, or better optomotor performance).
Test [2] shares this test system. The test is described as follows: Prob-Test (SSMD vs DMSO vehicle); higher = higher than vehicle (e.g. higher dark-flash O-bend response probability, or better optomotor performance).
Test [3] has the same test system. The test is described as follows: Prob-Naive (SSMD vs DMSO vehicle); higher = higher than vehicle (e.g. higher dark-flash O-bend response probability, or better optomotor performance).
For test [4] the test system is unchanged. The test is described as follows: Prob-Train (SSMD vs DMSO vehicle); higher = higher than vehicle (e.g. higher dark-flash O-bend response probability, or better optomotor performance).

With `CC1(C)[C@@H](O[C@H]2O[C@H](C(=O)O)[C@@H](O)[C@H](O)[C@@H]2O[C@@H]2O[C@H](C(=O)O)[C@@H](O)[C@H](O)[C@@H]2O)CC[C@@]2(C)[C@H]1CC[C@]1(C)[C@H]2C(=O)C=C2[C@H]3C[C@@](C)(C(=O)O)CC[C@]3(C)CC[C@]21C` [Glycyrrhizic Acid], the OMR-Perf in test [1] was -0.0719. Besides, in test [2], the Prob-Test stood at 0.403. This compound came in with a Prob-Naive in test [3] of -0.0681. In test [4], this compound had a Prob-Train of 0.000763.

Turning to `C[C@@H](NCCc1ccc(O)cc1)[C@@H](O)c1ccc(O)cc1.Cl` [Ritodrine HCl], the OMR-Perf in test [1] was 0.123. The compound further gave a Prob-Test in test [2] of 0.486. In test [3], the Prob-Naive was 0.394. Further, the Prob-Train in test [4] was -0.123.

In turn, `CCCCOc1ccc(C(=O)CCN2CCCCC2)cc1.Cl` [Dyclonine HCl] yielded an OMR-Perf in test [1] of 0.405. The compound further displayed a Prob-Test in test [2] of -0.0329. The same compound returned a Prob-Naive in test [3] of -0.286. This compound displayed a Prob-Train in test [4] of 0.663.

As to `CC[C@H](C)C(=O)O[C@H]1CCC=C2C=C[C@H](C)[C@H](CC[C@H]3C[C@@H](O)CC(=O)O3)[C@H]21` [Mevastatin], the OMR-Perf in test [1] is -0.195. In test [2], this compound came in with a Prob-Test of -1.7. Besides, the Prob-Naive in test [3] was 0.584. The compound also registered a Prob-Train in test [4] of -1.21.

`OC[C@H]1O[C@@H](OCCc2ccc(O)cc2)[C@H](O)[C@@H](O)[C@@H]1O` [Salidroside] gave an OMR-Perf in test [1] of 0.341. Further, the Prob-Test in test [2] came to 0.138. Besides, in test [3], the Prob-Naive is -0.0925. In addition, the Prob-Train in test [4] is -0.0522.

In turn, `CN1CCN2c3ccccc3Cc3ccccc3C2C1.Cl` (stereo unspecified) [Mianserin HCl] showed an OMR-Perf in test [1] of -1.04. The compound also displayed a Prob-Test in test [2] of -1.66. The Prob-Naive in test [3] came to 0.614. Further, in test [4], the Prob-Train is -0.564.

Turning to `CC(C)CN(C[C@@H](O)[C@H](Cc1ccccc1)NC(=O)O[C@H]1CO[C@H]2OCC[C@H]21)S(=O)(=O)c1ccc(N)cc1.CCO` [Darunavir Ethanolate], the OMR-Perf in test [1] was -0.29. In test [2], the Prob-Test came to 0.0216. The same compound registered a Prob-Naive in test [3] of 0.0934. In test [4], this compound gave a Prob-Train of 0.0944.

On to `COc1ccc(F)c(F)c1C(=O)c1cnc(NC2CCN(S(C)(=O)=O)CC2)nc1N`, for which, in test [1], the OMR-Perf was -0.0185. Further, the Prob-Test in test [2] was 0.991. Moreover, the Prob-Naive in test [3] worked out at 0.289. Also, the Prob-Train in test [4] stood at 1.04.

`C[C@H](C(=O)O)c1ccc(-c2ccccc2)c(F)c1` [Flurbiprofen]: the OMR-Perf in test [1] was -0.326. Moreover, the Prob-Test in test [2] was -1.07. In addition, in test [3], the Prob-Naive is -0.633. The same compound came in with a Prob-Train in test [4] of -0.723.

Turning to `CC[C@@H]1OC(=O)[C@H](C)[C@@H](O[C@H]2C[C@@](C)(OC)[C@@H](O)[C@H](C)O2)C(C)[C@@H](O[C@@H]2O[C@H](C)C[C@H](N(C)C)[C@H]2O)[C@](C)(O)C[C@@H](C)CN(C)[C@H](C)[C@@H](O)[C@]1(C)O.O.O` (stereo partly specified) [Azithromycin Dihydrate], the OMR-Perf in test [1] was found to be 0.185. For the same compound, the Prob-Test in test [2] is -0.287. The same compound gave a Prob-Naive in test [3] of -0.456. The Prob-Train in test [4] amounted to 0.133.

On to `Cc1ccc(C(=O)Nc2cccc(C(F)(F)F)c2)cc1Nc1nc(-c2cccnc2)nc2c1cnn2C`, for which the OMR-Perf in test [1] is -0.255. For the same compound, the Prob-Test in test [2] turned out to be 0.239. The same compound registered a Prob-Naive in test [3] of -0.589. Besides, the Prob-Train in test [4] was -0.419.

Consider `COCCc1ccc(OCC(O)CNC(C)C)cc1.COCCc1ccc(OCC(O)CNC(C)C)cc1.O=C(O)[C@H](O)[C@@H](O)C(=O)O` (stereo unspecified) [Metoprolol Tartrate], for which the OMR-Perf in test [1] turned out to be 0.556. The compound further showed a Prob-Test in test [2] of -0.0346. Moreover, the Prob-Naive in test [3] turned out to be 0.511. The compound further had a Prob-Train in test [4] of 0.328.

`CC[C@]1(O)C[C@@H]2CN(CCc3c([nH]c4ccccc34)[C@@](C(=O)OC)(c3cc4c(cc3OC)N(C=O)[C@H]3[C@@](O)(C(=O)OC)[C@H](OC(C)=O)[C@]5(CC)C=CCN6CC[C@@]43[C@@H]65)C2)C1.O=S(=O)(O)O` [Vincristine] came in with an OMR-Perf in test [1] of 0.178. In test [2], this compound came in with a Prob-Test of 0.692. In test [3], the Prob-Naive is 0.214. In addition, the Prob-Train in test [4] was determined as 0.081.

In turn, `CCCCCCCCc1ccc(CCC(N)(CO)CO)cc1.Cl` [Fingolimod (FTY720) HCl] gave an OMR-Perf in test [1] of -1.08. Also, the Prob-Test in test [2] is -0.486. Besides, the Prob-Naive in test [3] is -0.363. The compound also displayed a Prob-Train in test [4] of -0.336.

`O=C(Nc1cc(C(F)(F)F)ccc1N1CCCCC1)c1ccncc1` had an OMR-Perf in test [1] of 0.31. The same compound registered a Prob-Test in test [2] of -0.409. In test [3], the Prob-Naive was -3.04. This compound had a Prob-Train in test [4] of -1.25.

`COC(=O)[C@H]1[C@H]2C[C@@H]3c4[nH]c5cc(OC)ccc5c4CCN3C[C@H]2C[C@@H](OC(=O)c2cc(OC)c(OC)c(OC)c2)[C@@H]1OC` [Reserpine]: in test [1], the OMR-Perf was -0.934. In test [2], the Prob-Test is -0.219. The same compound had a Prob-Naive in test [3] of -0.134. Moreover, the Prob-Train in test [4] was -1.02.

The compound `CCC(CC)(NC(=O)C(C)C)C(=O)N[C@@H](CCCNC(=N)N)C(=O)NC1(C(=O)NC(c2ccc(F)cc2)c2ccc(F)cc2)CCCC1` showed an OMR-Perf in test [1] of 0.351. In test [2], this compound gave a Prob-Test of 0.573. Also, in test [3], the Prob-Naive was -0.314. For the same compound, the Prob-Train in test [4] came to 0.175.

Regarding `CCc1nc(-c2cccc(C)c2)c(-c2ccnc(NC(=O)c3ccccc3)c2)s1`, the OMR-Perf in test [1] was -0.506. Also, the Prob-Test in test [2] is -0.789. In test [3], the Prob-Naive was -0.137. Besides, the Prob-Train in test [4] is -0.748.

On to `CCOC(=O)OC(C)OC1=C(C(=O)Nc2ccccn2)N(C)S(=O)(=O)c2ccccc21` (stereo unspecified) [Ampiroxicam], for which the OMR-Perf in test [1] was -0.425. The compound further had a Prob-Test in test [2] of -0.195. The compound further gave a Prob-Naive in test [3] of -0.106. In test [4], the Prob-Train is -0.352.

The values above are taken from the supplement of paper PMC10727501.
